Source: US20200399375A1
No constants are given. Whether binding was seen depends on the method and setting. Some results given as binding are weak or reduced against the parent protein; the word gives no strength.

The chains behind the UniProt entries cited, without tags or fusion partners. Where a name states a change or a piece, a line headed by the entry shows the natural chain unless it says otherwise. Residues count along the entry.
UniProt Q9NZQ7, residues 19-239: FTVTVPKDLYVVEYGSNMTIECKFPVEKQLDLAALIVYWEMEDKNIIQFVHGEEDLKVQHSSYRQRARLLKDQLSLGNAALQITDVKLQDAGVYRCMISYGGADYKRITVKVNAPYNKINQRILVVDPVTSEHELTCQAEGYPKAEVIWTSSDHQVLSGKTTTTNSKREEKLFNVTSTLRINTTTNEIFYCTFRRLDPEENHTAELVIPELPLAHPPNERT

Molecular target: human PD-L1 antigen (huPD-L1-his, Sino biological, 10084-H08H-200) (human) (UniProt Q9NZQ7)
Assay: BIACORE (Test 4)

B1: humanized 24D5, CDRs directly embedded into the humanized template (24D5_VH.1 / 24D5_VL.1, Grafted) (antibody, V domains shown)
VH: QVQLVQSGAEVKKPGASVKVSCKASGYTFTSYWMHWVRQAPGQGLEWMGRIHPNSGGTSYNEKFKNRVTMTRDTSTSTVYMELSSLRSEDTAVYYCARGGSSYDYFDYWGQGTTVTVSS
VL: DIVLTQSPASLAVSPGQRATITCRASESVSIHGTHLMHWYQQKPGQPPKLLIYAASNLESGVPARFSGSGSGTDFTLTINPVEANDTANYYCQQSFEDPLTFGQGTKLEIK
- binding: binds
